Measurements from patent publication US20250137008A1 (UNIVERSITY OF GLASGOW, published 2025).
Results are given in words; binding and its absence hold for the method and conditions named. Some results given as binding are weak or reduced against the parent protein; the word gives no strength.

Molecular target: gVSD^PNNP N-terminus (soluble) (Arabidopsis thaliana)
Test: gel filtration of soluble N-termini (self-association)

B1: gVSD^PNNP N-terminus (soluble) (protein)
chain: MGRLRRRQEIIDHEEEESNDDVSSDDGDLSLAKTFDWLKSSKDDDIKTKGDNKYDYIIDPKNRWYKAWE
binding: binds
